Source: the supplement of paper PMC10849652
The other results are listed elsewhere or left out.

Chains of the proteins cited; added tags and fusions are not shown. Lines headed by an entry give the natural chain unless they say otherwise; changes in a name come on top.
UniProt Q6NVU6: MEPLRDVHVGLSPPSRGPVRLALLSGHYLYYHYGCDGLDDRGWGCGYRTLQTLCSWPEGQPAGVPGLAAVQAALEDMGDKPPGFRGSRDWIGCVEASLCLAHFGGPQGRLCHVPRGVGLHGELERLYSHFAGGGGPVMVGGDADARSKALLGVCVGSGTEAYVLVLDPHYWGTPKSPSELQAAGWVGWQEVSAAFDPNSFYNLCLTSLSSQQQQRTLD
UniProt Q9Y5J1: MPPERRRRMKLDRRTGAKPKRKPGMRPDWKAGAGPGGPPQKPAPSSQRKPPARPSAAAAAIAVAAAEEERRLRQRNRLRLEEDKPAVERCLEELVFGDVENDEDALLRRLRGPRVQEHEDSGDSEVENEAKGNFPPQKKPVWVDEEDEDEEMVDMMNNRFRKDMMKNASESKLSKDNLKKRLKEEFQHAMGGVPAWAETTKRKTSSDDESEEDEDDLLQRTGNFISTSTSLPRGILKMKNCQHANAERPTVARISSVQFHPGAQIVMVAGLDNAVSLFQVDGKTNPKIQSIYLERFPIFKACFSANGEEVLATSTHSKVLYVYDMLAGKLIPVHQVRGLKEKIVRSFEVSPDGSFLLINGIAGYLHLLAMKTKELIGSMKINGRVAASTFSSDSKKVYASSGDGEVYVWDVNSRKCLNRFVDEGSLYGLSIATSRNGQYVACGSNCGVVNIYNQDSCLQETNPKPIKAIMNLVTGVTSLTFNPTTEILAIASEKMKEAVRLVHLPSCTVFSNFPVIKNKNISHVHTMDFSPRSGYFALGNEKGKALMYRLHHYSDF
UniProt Q9Y5T5, whole entry, looked up: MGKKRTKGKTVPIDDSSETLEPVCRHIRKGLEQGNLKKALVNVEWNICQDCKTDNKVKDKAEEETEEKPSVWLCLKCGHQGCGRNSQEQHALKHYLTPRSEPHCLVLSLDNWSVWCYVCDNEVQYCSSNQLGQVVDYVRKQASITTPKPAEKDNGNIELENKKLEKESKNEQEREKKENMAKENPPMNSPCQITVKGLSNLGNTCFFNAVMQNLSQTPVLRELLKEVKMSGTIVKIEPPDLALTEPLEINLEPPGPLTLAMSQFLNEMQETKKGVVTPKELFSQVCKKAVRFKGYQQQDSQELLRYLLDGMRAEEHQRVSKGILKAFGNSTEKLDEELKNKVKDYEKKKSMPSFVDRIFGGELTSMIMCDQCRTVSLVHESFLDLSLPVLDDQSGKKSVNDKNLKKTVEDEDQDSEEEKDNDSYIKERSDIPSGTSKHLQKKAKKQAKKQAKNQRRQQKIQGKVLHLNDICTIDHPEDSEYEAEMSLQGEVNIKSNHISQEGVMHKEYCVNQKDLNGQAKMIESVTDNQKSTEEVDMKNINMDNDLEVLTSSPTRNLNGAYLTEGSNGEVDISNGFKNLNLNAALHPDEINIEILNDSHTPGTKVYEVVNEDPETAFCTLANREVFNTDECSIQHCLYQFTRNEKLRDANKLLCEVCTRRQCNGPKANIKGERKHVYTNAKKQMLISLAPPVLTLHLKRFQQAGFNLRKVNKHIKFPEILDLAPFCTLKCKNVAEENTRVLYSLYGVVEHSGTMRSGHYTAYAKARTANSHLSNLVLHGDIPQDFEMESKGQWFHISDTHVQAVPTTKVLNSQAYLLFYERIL
UniProt P15498: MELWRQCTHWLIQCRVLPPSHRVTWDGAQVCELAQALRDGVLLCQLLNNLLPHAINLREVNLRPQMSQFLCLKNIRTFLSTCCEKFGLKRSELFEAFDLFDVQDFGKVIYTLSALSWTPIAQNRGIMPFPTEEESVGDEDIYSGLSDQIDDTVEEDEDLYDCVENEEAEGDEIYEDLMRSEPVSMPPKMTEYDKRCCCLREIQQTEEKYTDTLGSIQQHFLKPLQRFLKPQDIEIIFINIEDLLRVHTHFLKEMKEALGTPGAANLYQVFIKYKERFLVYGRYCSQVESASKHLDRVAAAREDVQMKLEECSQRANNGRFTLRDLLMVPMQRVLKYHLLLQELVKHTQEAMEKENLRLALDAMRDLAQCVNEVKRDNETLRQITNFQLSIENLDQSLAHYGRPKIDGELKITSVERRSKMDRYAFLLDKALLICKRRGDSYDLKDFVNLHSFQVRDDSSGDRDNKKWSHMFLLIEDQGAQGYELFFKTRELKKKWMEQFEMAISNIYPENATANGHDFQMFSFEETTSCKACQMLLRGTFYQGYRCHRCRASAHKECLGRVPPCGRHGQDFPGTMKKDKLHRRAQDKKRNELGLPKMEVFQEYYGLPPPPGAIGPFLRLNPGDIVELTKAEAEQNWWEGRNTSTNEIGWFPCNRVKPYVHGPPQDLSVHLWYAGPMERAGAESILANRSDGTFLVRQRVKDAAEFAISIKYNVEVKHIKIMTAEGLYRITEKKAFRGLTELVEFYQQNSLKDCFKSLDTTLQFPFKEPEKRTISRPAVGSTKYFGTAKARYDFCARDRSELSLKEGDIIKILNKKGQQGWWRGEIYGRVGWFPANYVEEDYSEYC
UniProt P13051, whole entry, looked up: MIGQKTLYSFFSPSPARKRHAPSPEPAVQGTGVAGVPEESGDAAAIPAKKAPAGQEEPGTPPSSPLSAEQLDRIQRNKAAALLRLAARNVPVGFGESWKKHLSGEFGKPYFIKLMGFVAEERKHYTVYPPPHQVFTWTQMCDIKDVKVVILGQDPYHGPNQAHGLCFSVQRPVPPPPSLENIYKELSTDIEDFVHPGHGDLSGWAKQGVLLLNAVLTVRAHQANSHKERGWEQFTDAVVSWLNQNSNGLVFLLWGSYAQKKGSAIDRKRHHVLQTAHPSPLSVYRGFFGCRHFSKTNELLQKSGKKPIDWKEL
UniProt O14957: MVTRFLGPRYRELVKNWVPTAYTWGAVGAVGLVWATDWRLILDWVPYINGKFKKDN
UniProt P62068, whole entry, looked up: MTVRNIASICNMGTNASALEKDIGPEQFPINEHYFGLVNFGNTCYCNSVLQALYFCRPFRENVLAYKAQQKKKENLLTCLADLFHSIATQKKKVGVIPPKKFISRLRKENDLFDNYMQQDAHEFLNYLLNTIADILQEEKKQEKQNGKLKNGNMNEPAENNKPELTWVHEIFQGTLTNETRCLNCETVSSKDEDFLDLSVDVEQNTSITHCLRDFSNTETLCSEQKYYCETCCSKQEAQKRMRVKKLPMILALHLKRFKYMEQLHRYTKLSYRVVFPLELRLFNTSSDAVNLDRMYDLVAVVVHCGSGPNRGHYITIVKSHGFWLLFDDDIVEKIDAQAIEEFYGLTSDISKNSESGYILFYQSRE
UniProt Q15836, whole entry, looked up: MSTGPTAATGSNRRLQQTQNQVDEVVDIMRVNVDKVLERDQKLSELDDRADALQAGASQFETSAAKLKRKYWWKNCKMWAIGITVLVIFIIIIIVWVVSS
UniProt C9J7I0: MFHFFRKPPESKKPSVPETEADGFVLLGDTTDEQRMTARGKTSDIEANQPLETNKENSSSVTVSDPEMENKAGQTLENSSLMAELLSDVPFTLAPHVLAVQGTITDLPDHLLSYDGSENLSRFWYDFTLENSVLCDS
UniProt Q96JH7: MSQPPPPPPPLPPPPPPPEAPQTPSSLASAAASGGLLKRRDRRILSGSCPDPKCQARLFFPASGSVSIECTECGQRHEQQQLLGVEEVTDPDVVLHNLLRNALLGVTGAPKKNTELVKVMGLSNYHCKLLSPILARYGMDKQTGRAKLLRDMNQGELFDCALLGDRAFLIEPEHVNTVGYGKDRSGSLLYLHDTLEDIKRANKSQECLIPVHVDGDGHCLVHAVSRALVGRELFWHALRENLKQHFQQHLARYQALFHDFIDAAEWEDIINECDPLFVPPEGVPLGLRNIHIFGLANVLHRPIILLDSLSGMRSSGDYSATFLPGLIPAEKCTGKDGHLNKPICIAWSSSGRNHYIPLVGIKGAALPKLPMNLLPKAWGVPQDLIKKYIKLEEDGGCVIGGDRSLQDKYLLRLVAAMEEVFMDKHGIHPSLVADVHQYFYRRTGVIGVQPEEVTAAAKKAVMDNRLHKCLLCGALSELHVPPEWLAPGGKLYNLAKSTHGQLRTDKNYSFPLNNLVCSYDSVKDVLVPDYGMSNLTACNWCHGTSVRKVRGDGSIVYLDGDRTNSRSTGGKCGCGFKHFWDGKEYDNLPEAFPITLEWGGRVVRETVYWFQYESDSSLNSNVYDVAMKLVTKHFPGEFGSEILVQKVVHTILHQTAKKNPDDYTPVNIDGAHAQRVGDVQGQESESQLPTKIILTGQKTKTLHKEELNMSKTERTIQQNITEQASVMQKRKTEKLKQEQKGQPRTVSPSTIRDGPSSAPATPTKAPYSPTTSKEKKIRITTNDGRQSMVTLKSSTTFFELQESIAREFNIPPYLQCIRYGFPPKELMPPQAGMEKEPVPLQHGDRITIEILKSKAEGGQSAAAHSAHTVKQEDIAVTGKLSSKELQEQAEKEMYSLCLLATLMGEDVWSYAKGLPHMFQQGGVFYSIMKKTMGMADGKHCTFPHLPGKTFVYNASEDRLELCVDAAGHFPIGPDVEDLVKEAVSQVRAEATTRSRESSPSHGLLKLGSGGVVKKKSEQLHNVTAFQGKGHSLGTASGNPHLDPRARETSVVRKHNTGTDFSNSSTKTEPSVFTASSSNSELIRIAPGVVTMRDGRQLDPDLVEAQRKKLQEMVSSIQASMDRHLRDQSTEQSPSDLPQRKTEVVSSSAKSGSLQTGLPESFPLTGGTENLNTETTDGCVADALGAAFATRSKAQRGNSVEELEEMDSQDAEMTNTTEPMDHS
UniProt Q8IX04: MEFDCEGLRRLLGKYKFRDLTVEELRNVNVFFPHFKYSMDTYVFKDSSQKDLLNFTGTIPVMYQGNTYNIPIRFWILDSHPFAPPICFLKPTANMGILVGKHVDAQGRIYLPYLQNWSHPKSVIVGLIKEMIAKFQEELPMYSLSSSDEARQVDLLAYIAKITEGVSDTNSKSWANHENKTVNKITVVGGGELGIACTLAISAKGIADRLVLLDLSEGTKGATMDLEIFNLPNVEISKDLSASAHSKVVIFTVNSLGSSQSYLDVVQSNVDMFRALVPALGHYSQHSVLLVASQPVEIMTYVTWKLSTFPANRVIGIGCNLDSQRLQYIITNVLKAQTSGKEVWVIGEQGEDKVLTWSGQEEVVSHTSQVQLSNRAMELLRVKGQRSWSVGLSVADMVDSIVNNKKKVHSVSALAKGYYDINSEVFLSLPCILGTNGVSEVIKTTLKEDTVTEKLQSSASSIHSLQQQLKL
UniProt P61960, whole entry, looked up: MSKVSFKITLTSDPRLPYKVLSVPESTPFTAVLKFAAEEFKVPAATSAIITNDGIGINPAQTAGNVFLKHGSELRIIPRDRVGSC
UniProt Q9UPT9: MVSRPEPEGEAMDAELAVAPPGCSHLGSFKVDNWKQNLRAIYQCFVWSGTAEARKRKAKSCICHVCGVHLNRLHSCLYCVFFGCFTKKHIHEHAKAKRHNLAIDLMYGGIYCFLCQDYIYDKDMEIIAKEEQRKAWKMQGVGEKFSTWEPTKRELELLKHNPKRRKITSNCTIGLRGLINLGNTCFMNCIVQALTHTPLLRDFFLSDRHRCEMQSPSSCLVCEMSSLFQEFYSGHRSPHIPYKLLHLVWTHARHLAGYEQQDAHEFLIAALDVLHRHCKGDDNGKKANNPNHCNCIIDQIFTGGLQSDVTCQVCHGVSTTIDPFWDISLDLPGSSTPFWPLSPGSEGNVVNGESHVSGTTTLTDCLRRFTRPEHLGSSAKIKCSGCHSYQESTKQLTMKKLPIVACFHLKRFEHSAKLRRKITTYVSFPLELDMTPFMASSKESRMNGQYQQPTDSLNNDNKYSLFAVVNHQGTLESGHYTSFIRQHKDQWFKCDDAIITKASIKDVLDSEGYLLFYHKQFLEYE
UniProt Q5TAP6: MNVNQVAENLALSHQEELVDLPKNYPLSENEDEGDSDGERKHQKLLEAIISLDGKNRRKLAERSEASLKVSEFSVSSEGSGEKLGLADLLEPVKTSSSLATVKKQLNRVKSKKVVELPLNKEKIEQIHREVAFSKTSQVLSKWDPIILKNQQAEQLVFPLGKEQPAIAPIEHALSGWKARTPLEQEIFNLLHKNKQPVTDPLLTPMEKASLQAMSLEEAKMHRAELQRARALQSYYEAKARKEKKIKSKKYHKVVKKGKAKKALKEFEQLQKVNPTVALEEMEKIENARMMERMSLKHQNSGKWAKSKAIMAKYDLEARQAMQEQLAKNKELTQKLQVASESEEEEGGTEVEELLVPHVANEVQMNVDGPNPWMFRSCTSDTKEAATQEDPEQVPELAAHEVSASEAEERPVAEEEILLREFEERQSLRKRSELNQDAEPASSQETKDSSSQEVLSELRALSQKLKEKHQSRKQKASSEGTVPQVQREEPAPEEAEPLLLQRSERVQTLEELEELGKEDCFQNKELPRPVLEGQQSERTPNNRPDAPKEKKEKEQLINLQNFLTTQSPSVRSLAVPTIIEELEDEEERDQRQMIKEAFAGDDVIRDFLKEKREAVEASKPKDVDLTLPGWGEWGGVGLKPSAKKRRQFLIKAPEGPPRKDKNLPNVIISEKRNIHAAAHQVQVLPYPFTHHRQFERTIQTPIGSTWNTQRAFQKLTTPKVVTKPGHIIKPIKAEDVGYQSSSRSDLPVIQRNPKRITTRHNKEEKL
UniProt Q6UW78: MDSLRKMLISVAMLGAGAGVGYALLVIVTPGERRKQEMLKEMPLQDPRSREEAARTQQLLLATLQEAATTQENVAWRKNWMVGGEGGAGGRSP

compound: CCN(CC)Cc1ccc2cc(COC(=O)Nc3ccc(C(=O)NO)cc3)ccc2c1 [givinostat]; assay: log2 fold change, soluble protein after heating vs DMSO (PISA); higher = thermal stabilisation; K562 cells, 10 uM, 30 min; active = over 0.2 and 3.5 SD of the protein, either way, in both replicates (recomputed)
In short: (§1)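 K562 cells at 2×10^6 cells/mL were treated with 10 μM compound for 30 min. Aliquots were heated for 3 min across 48°C-58°C, pooled, and extracted in PBS with 0.5% NP-40 at 4°C; soluble protein was the supernatant after 21,000xg for 90 min. Soluble protein was quantified by TMTpro 16plex LC-MS/MS with channel sums equalised, and reported as log2 fold change in thermal stability against DMSO controls, with values from duplicates.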

log2 fold change, inactive:
UBTF (UniProt P17480) 0.147
VASN (UniProt Q6EMK4) 0.031
UHRF1 isoform 2 (UniProt Q96T88) 0.26
UBR1 (UniProt Q8IWV7) 0.296
USP48 (UniProt Q86UV5) 0.237
USP54 (UniProt Q70EL1) -0.157
UFSP1 (UniProt Q6NVU6) 0.049
UBQLN1 isoform 2 (UniProt Q9UMX0) -0.022
UBQLN3 (UniProt Q9H347) 0.092
USP1 (UniProt O94782) 0.044
URM1 isoform 2 (UniProt Q9BTM9) 0.044
UTP18 (UniProt Q9Y5J1) -0.064
URB2 (UniProt Q14146) -0.206
USP16 (UniProt Q9Y5T5) 0.1
VAV1 (UniProt P15498) 0.285
USP33 (UniProt Q8TEY7) 0.263
UNG (UniProt P13051) -0.028
UQCR11 (UniProt O14957) -0.007
USP46 (UniProt P62068) 0.247
VAMP3 (UniProt Q15836) -0.014
UNK (UniProt Q9C0B0) -0.108
UPF3A (UniProt Q9H1J1) 0.001
UMAD1 (UniProt C9J7I0) -0.237
UBR3 isoform 4 (UniProt Q6ZT12) -0.067
VCPIP1 (UniProt Q96JH7) -0.157
USB1 (UniProt Q9BQ65) 0.286
UNC13A (UniProt Q9UPW8) -0.159
UEVLD (UniProt Q8IX04) 0.226
UTP20 (UniProt O75691) 0.463
UFM1 isoform 2 (UniProt P61960) -0.146
USP22 (UniProt Q9UPT9) 0.035
UTP14C (UniProt Q5TAP6) -0.042

compound: CCN(CCCOc1ccc2c(Nc3cc(CC(=O)Nc4cccc(F)c4)[nH]n3)ncnc2c1)CCOP(=O)(O)O [barasertib]; assay: as above
In short: as §1

log2 fold change, inactive:
UBTF (UniProt P17480) -0.02
UQCC3 (UniProt Q6UW78) 0.154
VASN (UniProt Q6EMK4) -0.006
UBR1 (UniProt Q8IWV7) -0.005
USP48 (UniProt Q86UV5) 0.252
USP54 (UniProt Q70EL1) 0.019
USP1 (UniProt O94782) -0.019
URM1 isoform 2 (UniProt Q9BTM9) 0.082
UTP18 (UniProt Q9Y5J1) -0.113
URB2 (UniProt Q14146) -0.014
USP16 (UniProt Q9Y5T5) -0.262
UNG (UniProt P13051) -0.027
VAMP3 (UniProt Q15836) -0.031
UNK (UniProt Q9C0B0) -0.012
UMAD1 (UniProt C9J7I0) -0.08
UBR3 isoform 4 (UniProt Q6ZT12) -0.239
UNC13A (UniProt Q9UPW8) -0.102
UEVLD (UniProt Q8IX04) -0.241
UFM1 isoform 2 (UniProt P61960) 0.053
UGP2 (UniProt C9JWG0) 0
USP22 (UniProt Q9UPT9) 0.167
